Where a name gives a salt, the structure may show the parent alone. The list shows a part of the results. Single values are uncertain here, since repeats match poorly.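 Human fetal ventral-midbrain neural progenitor line ReNCell VM, differentiated without mitogens. Images stained for doublecortin (early neurons) or tyrosine hydroxylase (dopaminergic neurons) were scored by blinded raters against untreated wells (0 = no change). Repeats and both raters were averaged, and compounds averaging 2 or higher were picked as hits for retesting.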
system: ReNCell VM; assay: dopaminergic neuron differentiation score (TH+ cell fraction vs untreated, manual image score) (score (0 to 3)); higher = more TH+ dopaminergic neuron differentiation; details: library: Prestwick; 2 uM; 4 weeks; BDNF 10 ng/ml + GDNF 10 ng/ml

SMILES | dopaminergic neuron differentiation score
CC(=O)Oc1ccccc1C(=O)Oc1ccccc1C(=O)O [Acetylsalicylsalicylic acid] | inactive: 0
CC(=O)N(CC(O)CN(C(C)=O)c1c(I)c(C(=O)NCC(O)CO)c(I)c(C(=O)NCC(O)CO)c1I)c1c(I)c(C(=O)NCC(O)CO)c(I)c(C(=O)NCC(O)CO)c1I (stereo unspecified) [Iodixanol] | inactive: 0
CC(C)[C@H](N)C(=O)OCCOCn1cnc2c(=O)nc(N)[nH]c21 [Valacyclovir hydrochloride] | inactive: 0
N[C@@H](C(=O)N[C@@H]1C(=O)N2C(C(=O)O)=C(Cl)CC[C@H]12)c1ccccc1 [Loracarbef] | inactive: 0
CC(C)(O)c1ccccc1CC[C@@H](SCC1(CC(=O)O)CC1)c1cccc(/C=C/c2ccc3ccc(Cl)cc3n2)c1 [Montelukast] | inactive: 0
CC(C(=O)O)c1ccc(C(=O)c2cccs2)cc1 (stereo unspecified) [Suprofen] | inactive: 0
COc1ccccc1OCC(O)CN1CCN(CC(=O)Nc2c(C)cccc2C)CC1 (stereo unspecified) [Ranolazine] | inactive: 0
COc1cc(NC(C)CCCN)c2ncccc2c1 (stereo unspecified) [Primaquine diphosphate] | inactive: 0

same assay, conditions: library: Spectrum; 2 uM; 4 weeks; BDNF 10 ng/ml + GDNF 10 ng/ml

SMILES | dopaminergic neuron differentiation score
CC(O)Cn1cnc2c1c(=O)n(C)c(=O)n2C (stereo unspecified) | inactive: 0
COC(=O)[C@H]1[C@H]2C[C@@H]3c4[nH]c5cc(OC)ccc5c4CCN3C[C@H]2C[C@@H](OC(=O)c2cc(OC)c(OC)c(OC)c2)[C@@H]1OC | inactive: 0
O=C(O)c1ccccc1Nc1ccccc1 | inactive: 0
CC(=O)O[C@H]1CC[C@]2(C)C3=C(CC[C@H]2C1(C)C)[C@]1(C)CC[C@H]([C@H](C)CCC=C(C)C)[C@@]1(C)CC3 | inactive: 0
CN1C(C)(C)CCCC1(C)C | inactive: 0
O=C(O)c1ccccc1OP(=O)(O)O | inactive: 0
C[C@@H]1CN(c2c(F)c(N)c3c(=O)c(C(=O)O)cn(C4CC4)c3c2F)C[C@H](C)N1 | inactive: 0
CC(O)(CC(=O)O)CC(=O)O | inactive: 0
O=C(OCc1ccccc1)c1ccccc1 | inactive: 0
CCCCOc1cc(C(=O)OCCN(CC)CC)ccc1N | active: 3
O=c1ccc2cc(O)c(O)cc2o1 | inactive: 0
C#C[C@]1(O)CC[C@H]2[C@@H]3[C@H](C)CC4=C(CCC(=O)C4)[C@H]3CC[C@@]21C | inactive: 0
CCN(CC)CCOC(=O)C(c1ccccc1)c1ccccc1 | inactive: 0
Nc1nc(O)c2ncn(CCC(CO)CO)c2n1 | inactive: 0
CCCCCCCCCCCCCCCC(=O)OC[C@@H](NC(=O)C(Cl)Cl)[C@H](O)c1ccc([N+](=O)[O-])cc1 | inactive: 0
COc1cc2ncnc(Nc3ccc(F)c(Cl)c3)c2cc1OCCCN1CCOCC1 | inactive: 0
NCC(=O)CCC(=O)O | inactive: 0
NC(=O)c1ccc([N+](=O)[O-])cc1Cl | inactive: 0
O=Cc1ccccc1O[C@@H]1O[C@H](CO)[C@@H](O)[C@H](O)[C@H]1O | inactive: 0
OCC(S)CS (stereo unspecified) | inactive: 0

Reprinted at random: three entries already listed.
SMILES | dopaminergic neuron differentiation score
O=Cc1ccccc1O[C@@H]1O[C@H](CO)[C@@H](O)[C@H](O)[C@H]1O | inactive: 0
CC(=O)O[C@H]1CC[C@]2(C)C3=C(CC[C@H]2C1(C)C)[C@]1(C)CC[C@H]([C@H](C)CCC=C(C)C)[C@@]1(C)CC3 | inactive: 0
O=C(O)c1ccccc1Nc1ccccc1 | inactive: 0

same assay, conditions: library: Tocriscreen; 2 uM; 4 weeks; BDNF 10 ng/ml + GDNF 10 ng/ml

SMILES | dopaminergic neuron differentiation score
O=c1cc(N2CCOCC2)oc2c1ccc1ccccc12 | inactive: 0
CN(CCOc1ccc(-c2ccc3c(c2)OCO3)cc1C(C)(C)C)CC(=O)O | inactive: 0
COC(=O)c1c(-c2cc(OC)c(OC)c(OC)c2)c2ccnc(OCc3ncccn3)c2c(=O)n1Cc1ccnc(C)c1 [T 0156 hydrochloride] | inactive: 0
